Screening data, single-dose tests

By UniProt entry, the sequences of proteins in these tests, tags left out. Residues count along the entry.
UniProt Q4DA54, 1-478: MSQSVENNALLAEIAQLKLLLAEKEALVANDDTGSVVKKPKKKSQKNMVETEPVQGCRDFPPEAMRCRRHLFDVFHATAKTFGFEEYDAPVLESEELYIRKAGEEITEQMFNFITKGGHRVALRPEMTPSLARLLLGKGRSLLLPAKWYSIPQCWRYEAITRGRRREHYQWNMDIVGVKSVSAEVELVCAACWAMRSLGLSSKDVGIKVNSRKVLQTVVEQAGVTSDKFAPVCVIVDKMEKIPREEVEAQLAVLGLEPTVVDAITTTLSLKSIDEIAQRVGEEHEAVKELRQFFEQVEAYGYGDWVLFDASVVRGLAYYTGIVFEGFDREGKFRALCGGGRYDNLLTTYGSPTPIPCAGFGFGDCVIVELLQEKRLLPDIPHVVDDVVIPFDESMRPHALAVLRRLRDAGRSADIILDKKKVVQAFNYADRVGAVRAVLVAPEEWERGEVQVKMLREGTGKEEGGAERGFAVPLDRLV
UniProt P9WNZ1, whole entry: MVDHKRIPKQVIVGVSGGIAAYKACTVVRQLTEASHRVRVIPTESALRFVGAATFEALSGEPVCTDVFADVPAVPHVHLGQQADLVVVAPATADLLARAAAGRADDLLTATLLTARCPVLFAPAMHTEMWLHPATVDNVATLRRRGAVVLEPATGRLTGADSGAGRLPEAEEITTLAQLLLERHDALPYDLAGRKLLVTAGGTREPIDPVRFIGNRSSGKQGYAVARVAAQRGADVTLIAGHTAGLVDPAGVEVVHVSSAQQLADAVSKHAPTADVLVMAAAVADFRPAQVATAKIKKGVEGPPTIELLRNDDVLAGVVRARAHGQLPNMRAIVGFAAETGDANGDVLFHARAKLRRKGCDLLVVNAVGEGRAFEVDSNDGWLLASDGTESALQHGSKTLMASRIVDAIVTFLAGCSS
UniProt A4I591, 1-473: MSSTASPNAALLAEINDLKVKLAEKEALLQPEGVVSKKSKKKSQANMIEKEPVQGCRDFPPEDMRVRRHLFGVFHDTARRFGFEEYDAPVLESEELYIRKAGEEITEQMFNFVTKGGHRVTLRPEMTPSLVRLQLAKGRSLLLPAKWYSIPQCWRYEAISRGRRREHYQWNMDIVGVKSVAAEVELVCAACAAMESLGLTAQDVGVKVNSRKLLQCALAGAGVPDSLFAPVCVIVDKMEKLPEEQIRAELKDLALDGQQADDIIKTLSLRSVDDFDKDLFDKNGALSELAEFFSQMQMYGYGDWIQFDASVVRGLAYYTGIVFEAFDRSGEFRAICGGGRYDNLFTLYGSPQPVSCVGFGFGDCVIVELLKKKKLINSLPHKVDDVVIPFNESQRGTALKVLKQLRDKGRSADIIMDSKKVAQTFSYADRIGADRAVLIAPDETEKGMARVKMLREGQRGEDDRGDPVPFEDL

From ChEMBL document CHEMBL3988442, “University of Dundee, Small-Polar-MMV Screening Library” (2021).

Each number is a percent effect as filed.
The record does not define 0% and 100%; most values in the screen are far below 50% and negative numbers occur (in some assays of this library far below -100).
The compounds are a random part of those screened.

A: 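Enzyme assay of histidyl-tRNA synthetase; the read-out is not stated. Target: Histidine-tRNA ligase, Trypanosoma cruzi CL Brener (UniProt Q4DA54). Concentration: 30 µM. Direction is inferred from retests: higher values go with stronger inhibition. Size under these conditions: about 69,000 compounds, about 31 of them at 50% or above in at least one test.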
B: 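Enzyme assay of CoaBC with a phosphate dye (Biomol Green) read at 650 nm. Target: Coenzyme A biosynthesis protein CoaBC, Mycobacterium tuberculosis (UniProt P9WNZ1). Compounds at 30 µM. Higher reads as stronger inhibition, judged from the few compounds that gave an IC50. Most strong results did not repeat in a second test. About 67,000 compounds were tested under these conditions; 0.06% (about 40) showed 50% or more at least once.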
C: 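Enzyme assay of histidyl-tRNA synthetase; the read-out is not stated. Target: Histidine-tRNA ligase, Leishmania infantum (UniProt A4I591). Tested at 30 µM. Higher reads as stronger inhibition (inferred: compounds with an IC50 in retests scored well above the rest). The assay is labelled LdHisRS but filed under L. infantum. About 69,000 compounds were tested under these conditions; 0.6% (about 410) showed 50% or more at least once.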

SMILES: CC(C)(C)n1cc(C2=CCN(CCc3ccccn3)CC2)cn1
A: 1.058%
B: 3.353%
C: 15.15%

SMILES: Cn1ccc(C(=O)NCCOc2ccc(C(C)(C)C)cc2)cc1=O
A: 1.657%
B: -3.571%
C: 8.333%

SMILES: CC(C)(C)c1cc(NC(=O)CN(Cc2ccco2)Cc2cccs2)on1
A: 5.419%
B: 1.935%
C: 11.84%

SMILES: O=C(Cn1cccn1)N1CCc2[nH]nc(-c3ccc4c(c3)OCO4)c2C1
A: 7.609%
B: 3.738%
C: 30.26%

SMILES: COc1cc(CNc2ccc(Cl)cc2)ccc1OCC(=O)O
A: 5.941%
B: 2.913%
C: 4.762%

SMILES: O=C(c1cccs1)N1CC(Oc2ccccc2Cl)C1
A: 0.578%
B: 7.438%
C: 12%

SMILES: COc1ncc(NS(=O)(=O)c2ccc(OC)c(C)c2)c(OC)n1
A: 6.341%
B: 1.882%
C: 6.78%

SMILES: O=C(c1cscn1)N1C[C@H]2CCC[C@@]2(COCc2ccccn2)C1
A: 2.513%
B: 4.332%
C: 5.941%

SMILES: CC1CCCN(CCNC(=O)c2ccn(-c3cccc(F)c3)n2)C1 (stereo unspecified)
A: 2.299%
B: 3.226%
C: 10.43%

SMILES: Cc1ccc(CN(CC(=O)NC2CCOCC2)c2ccc(F)cc2)o1
A: -1.63%
B: -0.8264%
C: 16%

SMILES: CCN1CC[C@@]2(C(=O)N3CCOCC3)CCN(C(=O)C(C)C)CC[C@@H]12
A: 4.854%
B: -0.3861%
C: 1.923%

SMILES: Cc1ccc(C)c(CC(=O)NC2CCS(=O)(=O)CC2)c1
A: 8.333%
B: -4.545%
C: 12.4%

SMILES: CC(C)(C)CC(=O)NS(=O)(=O)c1ccc(F)cc1C(F)(F)F
A: 6.637%
B: -4.206%
C: 20.35%

SMILES: COC(=O)c1cc(NCc2cscn2)ccc1C
A: -1.604%
B: 5.652%
C: 1.571%

SMILES: O=C(NCCc1c[nH]c2ccc(F)cc12)C1(n2cnnn2)CCCCC1
A: 1.22%
B: 3.544%
C: 21.05%

SMILES: O=C(c1ccoc1)N1CCC2(C1)CN(c1ncc(F)cn1)C2
A: 6.863%
B: -1.303%
C: 5.714%

SMILES: Cc1occc1CN(C)Cc1nc2c(cnn2C)c(=O)[nH]1
A: -2.5%
B: 17.47%
C: 11.32%

SMILES: CN(Cc1cccnc1)[C@@H]1CN(C(=O)NC2CC2)[C@@H]2CCCO[C@H]12
A: 5.714%
B: -1.356%
C: -8.333%

SMILES: Cc1cnc(C(C)(C)NC(=O)NCc2ccon2)s1
A: 5.882%
B: -2.419%
C: 10.53%

SMILES: CN(C)C(=O)C1(Oc2ccc(Cl)cc2)CCNCC1
A: 4.891%
B: -14.05%
C: 2.667%

SMILES: Cc1noc2ncc(C(=O)N(CC3CCOC3)C3CC3)cc12 (stereo unspecified)
A: 1.141%
B: -3.191%
C: 10.4%

SMILES: Cn1cc(C2CCCN2Cc2csc(C(C)(C)C)n2)cn1 (stereo unspecified)
A: 2.256%
B: 3.085%
C: -12.36%

SMILES: Cn1ccnc1CN1C[C@@H](CN2CCCC2)[C@@H](CO)C1
A: -1.667%
B: 1.474%
C: 7.547%

SMILES: Cc1nn(C)c(C)c1C(=O)NCc1ccnc(OCC(F)(F)F)c1
A: 1.183%
B: 2.408%
C: 5.357%

SMILES: CCOCc1ccc(CNc2nc(OC)ncc2Cl)cc1
A: 6.358%
B: 1.985%
C: 12.77%

SMILES: O=c1c2cc3c(cc2nnn1Cc1ccccc1)OCCO3
A: -4.018%
B: 5.867%
C: 18.52%

SMILES: O=C(c1cccnc1)N1CCc2ncnc(N3CCOCC3)c2CC1
A: 3.061%
B: -2.596%
C: 7%

SMILES: CNS(=O)(=O)c1ccc(C(=O)NC2CCc3nc(C)cn3C2)o1 (stereo unspecified)
A: 4.943%
B: -1.33%
C: 21.6%

SMILES: Cn1ccnc1CN1CCC2(CC1)CN(c1ccccn1)CCO2
A: 0.9901%
B: 5.057%
C: 23.29%

SMILES: Cc1nc(C(=O)N(C)CC2CCCO2)nn1-c1ccccc1C(C)C (stereo unspecified)
A: 3.509%
B: -6.821%
C: 10.71%

Repeated from the top, 4 entries:

* CC(C)(C)n1cc(C2=CCN(CCc3ccccn3)CC2)cn1 | A: 1.058%; B: 3.353%; C: 15.15%
* Cn1ccc(C(=O)NCCOc2ccc(C(C)(C)C)cc2)cc1=O | A: 1.657%; B: -3.571%; C: 8.333%
* CC(C)(C)c1cc(NC(=O)CN(Cc2ccco2)Cc2cccs2)on1 | A: 5.419%; B: 1.935%; C: 11.84%
* O=C(Cn1cccn1)N1CCc2[nH]nc(-c3ccc4c(c3)OCO4)c2C1 | A: 7.609%; B: 3.738%; C: 30.26%